In patent publication US6849644B2, “Isoquinoline derivatives useful in the treatment of CNS disorders” (SmithKline Beecham p.l.c., priority 2000, dated 2005):
Some entries share one result that the patent states for a list of compounds.

Amino acid sequences for entries named in this document (tags omitted).
UniProt P50406, whole entry: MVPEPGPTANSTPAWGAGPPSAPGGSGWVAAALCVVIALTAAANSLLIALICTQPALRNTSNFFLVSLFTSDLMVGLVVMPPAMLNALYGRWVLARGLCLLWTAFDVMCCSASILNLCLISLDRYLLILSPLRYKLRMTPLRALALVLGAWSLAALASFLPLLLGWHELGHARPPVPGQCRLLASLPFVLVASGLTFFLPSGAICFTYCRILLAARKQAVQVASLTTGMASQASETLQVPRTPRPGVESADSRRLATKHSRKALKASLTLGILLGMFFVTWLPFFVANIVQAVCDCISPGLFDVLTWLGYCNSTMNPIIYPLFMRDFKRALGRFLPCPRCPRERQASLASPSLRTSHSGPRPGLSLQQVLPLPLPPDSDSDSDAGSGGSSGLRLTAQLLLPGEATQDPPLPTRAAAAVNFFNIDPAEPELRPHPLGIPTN

Biological target: T1, human cloned 5-HT6 receptors (Homo sapiens, UniProt P50406)
T1 construct: expressed in transfected cells
Test: 5-HT6 receptor binding affinity (procedures outlined in WO 98/27081)
Text: Compounds can be tested following the procedures outlined in WO 98/27081.

How did the pKi turn out when `O=S(=O)(c1ccc2c(c1)CNCC2)n1cc(-c2ccccc2)c2ccccc21` [Example E11, 7-(3-Phenyl-indole-1-sulfonyl)-1,2,3,4-tetrahydro-isoquinoline] was run?
Its pKi is 8.2-8.9.
